Chains of the proteins cited; added tags and fusions are not shown. Residues count along the entry.
UniProt P15307, 2-587: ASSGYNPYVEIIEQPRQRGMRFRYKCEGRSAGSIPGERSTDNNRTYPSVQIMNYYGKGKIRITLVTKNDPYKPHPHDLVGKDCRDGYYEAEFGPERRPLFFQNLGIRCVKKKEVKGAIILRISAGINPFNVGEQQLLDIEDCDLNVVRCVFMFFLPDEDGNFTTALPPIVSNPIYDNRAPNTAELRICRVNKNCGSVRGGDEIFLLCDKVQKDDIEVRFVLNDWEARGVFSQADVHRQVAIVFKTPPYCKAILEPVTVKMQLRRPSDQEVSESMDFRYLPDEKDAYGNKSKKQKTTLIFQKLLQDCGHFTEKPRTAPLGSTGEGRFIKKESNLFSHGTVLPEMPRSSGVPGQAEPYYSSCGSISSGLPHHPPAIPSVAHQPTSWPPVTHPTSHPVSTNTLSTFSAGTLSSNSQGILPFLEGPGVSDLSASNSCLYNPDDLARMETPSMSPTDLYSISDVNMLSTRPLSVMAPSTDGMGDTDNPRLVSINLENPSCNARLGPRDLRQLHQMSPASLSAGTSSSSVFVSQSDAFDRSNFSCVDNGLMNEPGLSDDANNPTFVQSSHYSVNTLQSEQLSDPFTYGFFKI

According to PMC3241368:

Target: c-Rel (UniProt P15307)
Test: EMSA supershift
Conditions: nuclear extract of RAW264.7 + 10 ng/mL TNF-a, anti-c-Rel, light supershifted band; 3 ug nuclear protein, 0.25 pmol probe, 10 min at room temperature; 4% polyacrylamide gel, 0.25X TBE; binding buffer, salt and pH not stated; protein in an extract; label: 32P (Klenow fill-in with [a-32P]dCTP)

“GGGCATGGGAATTTCCAACTC (double strand) [NF-kB consensus oligonucleotide probe]”: binds.

Construct, isoform or probe ends are uncertain for at least one entry. Where cells or extracts were used, other partners may take part.
